Test results from PubChem BioAssay AID504467 (National Center for Advancing Translational Sciences (NCATS), 2011).
Among all 330,000 compounds or so, about 7,700 (2.3%) were called active. Inconclusive means that the source gave no clear call. Such entries were picked first, then a sample of the others. The call rests on the fitted dose curve; in most records, active means well fitted inhibition curve with a large enough effect; inconclusive means small, poorly fitted or top-dose-only effect, or effect the other way; inactive means flat fitted curve, though single readings scatter. Where the call is inconclusive, the potency comes from a doubtful curve fit.

test: qHTS screen for small molecules that inhibit ELG1-dependent DNA repair in human embryonic kidney (HEK293T) cells expressing luciferase-tagged ELG1; settings: HEK293T ELG1-luciferase reporter, luminescence, 16 h, DNA damage induced by 5-fluorouridine; series mostly up to 46.1 µM; further: nearly all actives have a fitted effect of over 55% in size
Method in brief: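 HEK293T cells expressing luciferase-tagged ELG1 (2,000/well) received 5-Fluorouridine plus compound or DMSO for 16 hr at 37 °C. Luciferase was read by ONE-Glo luminescence after 30 min at room temperature.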
Potency means the concentration at half of the fitted maximal effect.

Compound | Potency
COCCNC(=O)/C(C#N)=C/c1c(F)cccc1Cl | inconclusive: 25.9 µM [activator, single point]
COc1cccc(C(c2nnnn2Cc2ccco2)N2CCN(c3cccc(C)c3C)CC2)c1OC (centres undefined) | inconclusive: 18.4 µM [inhibitor, partial curve, poor fit]
O=C1/C(=C/c2cccc([N+](=O)[O-])c2)Oc2cc(O)ccc21 | inconclusive: 29.1 µM [inhibitor, single point]
COc1ccc(/C=N\NC(=O)c2ccccc2)cc1COc1ccc(F)cc1 | inconclusive: 29.1 µM [inhibitor, partial curve, poor fit]
CCCCCCCOc1ccc(OC(=O)c2cccnc2)cc1 | inconclusive: 20.6 µM [activator, single point]
CCCn1c(N)c(N(CCOC)C(=O)COC(=O)c2ccccc2NCCO)c(=O)[nH]c1=O | inconclusive: 20.6 µM [activator, single point]
CCS(=O)(=O)N1Cc2ccccc2CC1C(=O)Nc1ccc(F)c(F)c1 (centres undefined) | inconclusive: 29.1 µM [activator, partial curve, poor fit]
Cc1cc(C)cc(NS(=O)(=O)c2ccc(-c3cnc(C4CC4)o3)cc2)c1 | inactive
CCCOc1ccc2c3c(c(=O)oc2c1OCCC)CCCC3 | inconclusive: 23.1 µM [activator, single point]
CC(=O)N(NC(=O)c1ccc(C)cc1)C1CC(=O)N(c2ccccc2Cl)C1=O (centres undefined) | inactive
COc1cc2c(cc1NCc1ccccn1)oc1ccccc12 | inconclusive: 5.17 µM [activator, full curve]
Cc1ccc(C)c(S(=O)(=O)N2CCN(C(=O)c3ccc(N4CCCC4)c([N+](=O)[O-])c3)CC2)c1 | active: 20.6 µM
CCOc1ccc2nc(SCC(=O)Nc3ccc(S(=O)(=O)N4CCCC4)cc3)c(C)cc2c1 | inactive
Cc1cc(C)c2[nH]c(O)c(N=NC(=S)NCC3CCCO3)c2c1 (centres undefined) | inconclusive: 0.231 µM [activator, single point]
O=[N+]([O-])c1cccc2c(N3CCOCC3)ccnc12 | inconclusive: 16.4 µM [inhibitor, partial curve]
C[C@@H]1CC[C@]2(C(=O)O)CC[C@]3(C)C(=CCC4[C@@]5(C)CC[C@H](O)[C@@](C)(C(=O)O)C5CC[C@]43C)C2[C@]1(C)O (some centres undefined) | inactive
CC(C)(C)c1ccc(/C=N/Nc2nncn2N)cc1 | inconclusive: 18.3 µM [activator, single point]
COc1ccc(N2CCN(C(=O)c3ccc(CS(=O)(=O)c4ccc(OC)cc4)o3)CC2)cc1 | inconclusive: 23.1 µM [inhibitor, single point]
COc1cc(OC)cc(C(=O)NCC(=O)OCC(=O)C(C)(C)C)c1 | inactive
COc1ccc(NC(=O)CN(C)C(=O)c2ccc(S(=O)(=O)Nc3ccccc3C)cc2)cc1 | inactive
COc1cc(/C=C2\COC/C(=C\c3ccc(O)c(OC)c3)C2=O)ccc1O | inconclusive: 29.1 µM [inhibitor, single point]
COCCCNC(=S)NC(=O)c1ccccc1 | inconclusive: 18.4 µM [activator, partial curve]

2 successive compounds from above, for reference:
Compound | Potency
COc1cc2c(cc1NCc1ccccn1)oc1ccccc12 | inconclusive: 5.17 µM [activator, full curve]
Cc1ccc(C)c(S(=O)(=O)N2CCN(C(=O)c3ccc(N4CCCC4)c([N+](=O)[O-])c3)CC2)c1 | active: 20.6 µM

(further entries)

Compound | Potency
Cc1nc(SCc2nc3ccc([N+](=O)[O-])cc3[nH]2)c2oc3ccccc3c2n1 | inconclusive: 2.59 µM [inhibitor, full curve, poor fit]
CNC(=O)c1sc2nc(-c3ccc(OC)cc3)cn2c1C | inconclusive: 1.16 µM [activator, full curve]
CCOc1cc(/C=N/Nc2nc(N3CCCC3)nc(N3CCCC3)n2)ccc1O | active: 11.6 µM
COc1ccc(NC(=O)CN(C)C(=O)c2cn(-c3ccccc3)nc2-c2cccnc2)cc1 | inconclusive: 8.91 µM [inhibitor, partial curve, poor fit]
CC(C)C(=O)O/N=C(\N)c1ccccn1 | inactive
O=C(CCCCCn1c(=S)[nH]c2cc3c(cc2c1=O)OCO3)N1CCN(c2ccc(F)cc2)CC1 | inactive
Cc1ccc(-n2cc(CN3CCCN(C=O)CC3)c(-c3ccc(F)cc3)n2)cc1 | active: 23.1 µM
CSc1nc(Sc2cccc(Cl)c2)c2ccccc2n1 | inactive
COc1ccc(C(=O)Nc2nnc(SCC(=O)NC3CCCC3)s2)c(OC)c1 | inconclusive: 0.73 µM [activator, full curve]
CCC(CC)C(=O)N=C1SC2CS(=O)(=O)CC2N1CCc1ccc(OC)cc1 (centres undefined) | inconclusive: 16.4 µM [inhibitor, single point]
Nc1c(C(=O)NCc2ccc(F)cc2)c2nc3ccccc3nc2n1CCCN1CCOCC1 | inconclusive: 23.1 µM [inhibitor, partial curve]
CN(C(=O)CNc1ccccc1Cl)C1CCS(=O)(=O)C1 (centres undefined) | inactive
Cc1cnc(NC(=O)C(C)N2CCN(C)CC2)s1 (centres undefined) | inactive
CCOC(=O)c1c(C)[nH]c(C)c1C(=O)CSc1nc2ccccc2n1CC | inconclusive: 23.1 µM [inhibitor, single point]
C/C(=N\Nc1nc(C(C)(C)C)cs1)c1ccccc1 | inconclusive: 2.31 µM [activator, full curve]
C/C(=N\NC(=O)c1cc(-c2ccc(C)s2)[nH]n1)c1ccco1 | inconclusive: 14.6 µM [activator, partial curve]
CCOCCCNC(=S)Nc1cc(OCC)c(NC(=O)c2ccco2)cc1OCC | inconclusive: 20.6 µM [inhibitor, partial curve, poor fit]
CC1CCN(Cc2cc(=O)oc3cc4c(cc23)CCCC4)CC1 | inconclusive: 5.8 µM [activator, partial curve, poor fit]
Cc1cccc(C)c1OCc1cc(C(=O)N2CCC(c3ccccc3)CC2)no1 | inconclusive: 20.6 µM [activator, partial curve]
COC(=O)N/N=C/c1cn(Cc2c(Cl)cccc2Cl)c2ccccc12 | inactive
O=[N+]([O-])c1ccc(NCc2ccccc2)nc1 | inconclusive: 18.4 µM [activator, partial curve]
CCOc1ccc(S(=O)(=O)N2Cc3ccccc3CC2C(=O)NCCCn2ccnc2)cc1 (centres undefined) | inconclusive: 29.1 µM [activator, single point]
